Assay results reported in patent US20110218188A1, “SUBSTITUTED (PYRIDYL)-AZINYLAMINE DERIVATIVES AS FUNGICIDES” (priority 2008, published 2011).
Some of these results come from one statement about several compounds together.

Key:
[1] = system: Pyrenophora teres; assay: In vivo test on Pyrenophora teres (barley net blotch); conditions: dose of 500 ppm; barley plants sprayed 24 hours before contamination; grading 12 days after the contamination
[2] = system: Leptosphaeria nodorum; assay: Leptosphaeria test (wheat)/preventive; conditions: 500 ppm of active ingredient, preventive, evaluated 7-9 days after the inoculation
[3] = system: Uromyces appendiculatus; assay: Uromyces test (beans)/protective; format: in vivo; conditions: 100 ppm of active ingredient, protective, evaluated 10 days after the inoculation
[4] = system: Venturia inaequalis; assay: Venturia test (apples)/protective; format: in vivo; conditions: 100 ppm of active ingredient, protective, evaluated 10 days after the inoculation
[5] = system: Puccinia triticina; assay: Puccinia triticina-test (wheat)/preventive; conditions: 1000 ppm of active ingredient, preventive, evaluated 8 days after the inoculation
[6] = system: Fusarium nivale (var. majus); assay: Fusarium nivale (var. majus)-test (wheat)/preventive; conditions: 1000 ppm of active ingredient, preventive, evaluated 5 days after the inoculation

SMILES: CC#CCON=C(C)c1cc(-c2ncnc(Nc3cccc(Cl)c3)n2)ccn1 (mixture of isomers) [Example B36]
- good (at least 70%) protection [1]: at least 70%

SMILES: CCCN(C)C(=S)c1cc(-c2ncnc(Nc3cccc(Cl)c3)n2)ccn1 [Example B336]
- efficacy [2]: ≥ 70%
- efficacy [3]: ≥ 70%
- efficacy [4]: ≥ 70%

SMILES: CCN(C)C(=S)c1cc(-c2ncnc(Nc3cccc(COC)c3)n2)ccn1 [Example B248]
- efficacy [2]: ≥ 70%
- efficacy [5]: ≥ 70%
- efficacy [4]: ≥ 70%

SMILES: CCN(C)C(=S)c1cc(-c2ncnc(Nc3ccc(F)c(C(F)F)c3)n2)ccn1 [Example B333]
- efficacy [2]: ≥ 70%
- efficacy [3]: ≥ 70%
- efficacy [4]: ≥ 70%

SMILES: CCN(C)C(=O)c1cc(-c2ncnc(Nc3cccc(S(F)(F)(F)(F)F)c3)n2)ccn1 [Example B252]
- good (at least 70%) protection [1]: at least 70%

SMILES: CCOC(=O)CNN=C(C)c1cc(-c2ncnc(Nc3cccc(Cl)c3)n2)ccn1 [Example B77]
- good (at least 70%) protection [1]: at least 70%

SMILES: CCN(C)C(=S)c1cc(-c2ncnc(Nc3ccc(F)cc3)n2)ccn1 [Example B23]
- efficacy [2]: ≥ 70%
- efficacy [3]: ≥ 70%
- efficacy [4]: ≥ 70%
- efficacy [6]: ≥ 70%

SMILES: C=CCN(CC=C)C(=O)c1cc(-c2ncnc(Nc3ccc(OC)nc3)n2)ccn1 [Example C7]
- good (at least 70%) protection [1]: at least 70%

SMILES: CN(CC1CC1)C(=O)c1cc(-c2ncnc(Nc3ccc(F)c(Cl)c3)n2)ccn1 [Example B204]
- efficacy [2]: ≥ 70%
- efficacy [4]: ≥ 70%
- efficacy [6]: ≥ 70%

SMILES: CCCN(C)C(=O)c1cc(-c2ncnc(Nc3ccccc3)n2)ccn1 [Example B312]
- efficacy [2]: ≥ 70%
- efficacy [3]: ≥ 70%
- efficacy [4]: ≥ 70%

SMILES: CCN(C)C(=O)c1cc(-c2ncnc(Nc3cccc(C(F)F)c3)n2)ccn1 [Example B400]
- efficacy [2]: ≥ 70%
- efficacy [3]: ≥ 70%
- efficacy [4]: ≥ 70%

SMILES: CN(CC1CC1)C(=S)c1cc(-c2ncnc(Nc3ccccc3)n2)ccn1 [Example B337]
- efficacy [2]: ≥ 70%
- efficacy [3]: ≥ 70%
- efficacy [4]: ≥ 70%

SMILES: O=C(NCCN1CCOCC1)c1cc(-c2ncnc(Nc3cccc(Cl)c3)n2)ccn1 [Example B105]
- good (at least 70%) protection [1]: at least 70%

SMILES: CN(C)C(=S)c1cc(-c2ncnc(Nc3ccc(F)c(C(F)F)c3)n2)ccn1 [Example B332]
- efficacy [2]: ≥ 70%
- efficacy [3]: ≥ 70%
- efficacy [4]: ≥ 70%

SMILES: CCN(C)C(=S)c1cc(-c2ncnc(N(C(C)=O)c3cccc(F)c3)n2)ccn1 [Example B339]
- efficacy [2]: ≥ 70%
- efficacy [3]: ≥ 70%
- efficacy [4]: ≥ 70%

SMILES: CCN(CC)C(=O)c1cc(-c2ncnc(Nc3ccccc3)n2)ccn1 [Example B311]
- efficacy [2]: ≥ 70%
- efficacy [3]: ≥ 70%
- efficacy [4]: ≥ 70%

SMILES: CC(C)CN(C)C(=O)c1cc(-c2ncnc(Nc3ccc(F)c(F)c3)n2)ccn1 [Example B380]
- efficacy [2]: ≥ 70%
- efficacy [3]: ≥ 70%
- efficacy [4]: ≥ 70%

SMILES: COc1cccc(Nc2ncnc(-c3ccnc(C(=O)N(C)CC(C)C)c3)n2)c1 [Example B277]
- efficacy [2]: ≥ 70%
- efficacy [4]: ≥ 70%
- efficacy [6]: ≥ 70%

SMILES: CC(C)CN(C)C(=O)c1cc(-c2ncnc(Nc3cccc(OC(F)F)c3)n2)ccn1 [Example B301]
- efficacy [2]: ≥ 70%
- efficacy [3]: ≥ 70%

SMILES: O=C(c1cc(-c2ncnc(Nc3cccc(Cl)c3)n2)ccn1)N1CCCC(O)C1 (stereo not shown) [Example B140]
- good (at least 70%) protection [1]: at least 70%

SMILES: CN(C)C(=O)c1cc(-c2ncnc(Nc3ccc(F)c(Cl)c3)n2)ccn1 [Example B205]
- efficacy [2]: ≥ 70%
- efficacy [4]: ≥ 70%
- efficacy [6]: ≥ 70%

SMILES: CCN(C)C(=S)c1cc(-c2ncnc(Nc3cccc(S(F)(F)(F)(F)F)c3)n2)ccn1 [Example B253, N-ethyl-N-methyl-4-(4-{[3-(pentafluoro-lambda^6-sulfanyl)phenyl]amino}-1,3,5-triazin-2-yl)pyridine-2-carbothioamide]
- efficacy [2]: ≥ 70%
- efficacy [6]: ≥ 70%

SMILES: CC(C)CN(C)C(=O)c1cc(-c2ncnc(Nc3ccc(F)c(Cl)c3)n2)ccn1 [Example B206]
- efficacy [2]: ≥ 70%
- efficacy [4]: ≥ 70%
- efficacy [6]: ≥ 70%

SMILES: CC(C)N(C)C(=O)c1cc(-c2ncnc(Nc3ccsc3)n2)ccn1 [Example C20]
- efficacy [2]: ≥ 70%
- efficacy [4]: ≥ 70%
- efficacy [6]: ≥ 70%

SMILES: CCCCCCN(C)C(=O)c1cc(-c2ncnc(Nc3cccc(Cl)c3)n2)ccn1 [Example B128]
- good (at least 70%) protection [1]: at least 70%

SMILES: O=C(c1cc(-c2ccnc(Nc3ccnc(Cl)c3)n2)ccn1)N1CC=CCC1 [Example A2]
- good (at least 70%) protection [1]: at least 70%

SMILES: CN(C)C(=O)c1cc(-c2ncnc(Nc3ccc(F)c(C(F)F)c3)n2)ccn1 [Example B393]
- efficacy [2]: ≥ 70%
- efficacy [3]: ≥ 70%
- efficacy [4]: ≥ 70%

SMILES: CCN(C)C(=S)c1cc(-c2ncnc(N(C(=O)COC)c3cccc(F)c3)n2)ccn1 [Example B338]
- efficacy [2]: ≥ 70%
- efficacy [3]: ≥ 70%
- efficacy [4]: ≥ 70%

SMILES: CC(=NOCC1CC1)c1cc(-c2ncnc(Nc3cccc(Cl)c3)n2)ccn1 (mixture of isomers) [Example B34]
- good (at least 70%) protection [1]: at least 70%

SMILES: CN(CC1CC1)C(=S)c1cc(-c2ncnc(Nc3cccc(Cl)c3)n2)ccn1 [Example B330]
- efficacy [2]: ≥ 70%
- efficacy [3]: ≥ 70%
- efficacy [4]: ≥ 70%

SMILES: CCCN(C)C(=O)c1cc(-c2ncnc(Nc3cccc(COC)c3)n2)ccn1 [Example B241]
- efficacy [2]: ≥ 70%
- efficacy [6]: ≥ 70%

SMILES: O=C(c1cc(-c2ncnc(Nc3cccc(Cl)c3)n2)ccn1)N1CCCC(CO)C1 (stereo not shown) [Example B145]
- good (at least 70%) protection [1]: at least 70%

SMILES: CCOc1cccc(Nc2ncnc(-c3ccnc(C(=S)N(C)CC)c3)n2)c1 [Example B255]
- efficacy [2]: ≥ 70%
- efficacy [4]: ≥ 70%
- efficacy [6]: ≥ 70%

SMILES: CC(C)CN(C)C(=O)c1cc(-c2ncnc(Nc3ccc(Cl)c(C(F)F)c3)n2)ccn1 [Example B388]
- efficacy [2]: ≥ 70%
- efficacy [6]: ≥ 70%

SMILES: COCc1cccc(Nc2ncnc(-c3ccnc(C(=O)N(C)CC4CC4)c3)n2)c1 [Example B242]
- efficacy [2]: ≥ 70%
- efficacy [6]: ≥ 70%

SMILES: CCCON=C(C)c1cc(-c2ncnc(Nc3cccc(Cl)c3)n2)ccn1 (mixture of isomers) [Example B43]
- good (at least 70%) protection [1]: at least 70%

SMILES: CN(CC1CC1)C(=S)c1cc(-c2ncnc(Nc3cccc(C(F)F)c3)n2)ccn1 [Example B331]
- efficacy [2]: ≥ 70%
- efficacy [3]: ≥ 70%
- efficacy [4]: ≥ 70%

SMILES: CCN(CC)C(=O)c1cc(-c2ncnc(Nc3cccc(OC(F)F)c3)n2)ccn1 [Example B298]
- efficacy [2]: ≥ 70%
- efficacy [3]: ≥ 70%

SMILES: CCN(C)C(=S)c1cc(-c2ncnc(Nc3cccc(SC)c3)n2)ccn1 [Example B223]
- efficacy [2]: ≥ 70%
- efficacy [3]: ≥ 70%
- efficacy [4]: ≥ 70%
- efficacy [6]: ≥ 70%

SMILES: CCN(CC)C(=O)c1cc(-c2ncnc(Nc3cccc(C#N)c3)n2)ccn1 [Example B292]
- efficacy [2]: ≥ 70%
- efficacy [5]: ≥ 70%

SMILES: COCCN(C)C(=O)c1cc(-c2ncnc(Nc3cccc(COC)c3)n2)ccn1 [Example B247]
- efficacy [2]: ≥ 70%
- efficacy [5]: ≥ 70%

SMILES: CC(=NNc1ccc(Cl)cc1)c1cc(-c2ncnc(Nc3cccc(Cl)c3)n2)ccn1 [Example B82]
- good (at least 70%) protection [1]: at least 70%

SMILES: CN(CCC#N)C(=O)c1cc(-c2ncnc(Nc3ccc(F)cc3)n2)ccn1 [Example B14]
- efficacy [2]: ≥ 70%
- efficacy [6]: ≥ 70%

SMILES: CCN(C)C(=O)c1cc(-c2ncnc(Nc3cccc(COC)c3)n2)ccn1 [Example B245]
- efficacy [2]: ≥ 70%
- efficacy [6]: ≥ 70%

SMILES: CC(C)CC(=O)O/N=C(/N)c1cc(-c2ncnc(Nc3cccc(Cl)c3)n2)ccn1 [Example B110]
- good (at least 70%) protection [1]: at least 70%

SMILES: CN(CCC#N)C(=O)c1cc(-c2ncnc(Nc3ccccc3)n2)ccn1 [Example B310]
- efficacy [2]: ≥ 70%
- efficacy [3]: ≥ 70%
- efficacy [4]: ≥ 70%

SMILES: CC(C)N(C)C(=O)c1cc(-c2ncnc(Nc3ccc(F)cc3)n2)ccn1 [Example B21]
- efficacy [2]: ≥ 70%
- efficacy [6]: ≥ 70%

SMILES: CC(=NOC1CCCC1)c1cc(-c2ncnc(Nc3cccc(Cl)c3)n2)ccn1 (mixture of isomers) [Example B38]
- good (at least 70%) protection [1]: at least 70%

SMILES: CC(C)CN(C)C(=O)c1cc(-c2ncnc(Nc3cccc(C#N)c3)n2)ccn1 [Example B295]
- efficacy [2]: ≥ 70%
- efficacy [3]: ≥ 70%
- efficacy [6]: ≥ 70%

SMILES: C#CCON=C(C)c1cc(-c2ncnc(Nc3cccc(Cl)c3)n2)ccn1 (mixture of isomers) [Example B37]
- good (at least 70%) protection [1]: at least 70%

SMILES: CCN(C)C(=O)c1cc(-c2ncnc(Nc3ccc(Cl)c(C(F)F)c3)n2)ccn1 [Example B386]
- efficacy [2]: ≥ 70%
- efficacy [3]: ≥ 70%
- efficacy [4]: ≥ 70%

SMILES: CC(C)CN(C)C(=O)c1cc(-c2ncnc(Nc3cccc(OC(F)(F)F)c3)n2)ccn1 [Example B267]
- efficacy [2]: ≥ 70%
- efficacy [6]: ≥ 70%

SMILES: CCCN(C)C(=O)c1cc(-c2ncnc(Nc3ccc(F)c(Cl)c3)n2)ccn1 [Example B203]
- efficacy [2]: ≥ 70%
- efficacy [4]: ≥ 70%
- efficacy [6]: ≥ 70%

SMILES: CCON=C(CC)c1cc(-c2ncnc(Nc3cccc(Cl)c3)n2)ccn1 (mixture of isomers) [Example B40]
- good (at least 70%) protection [1]: at least 70%

SMILES: C=CCON=C(CC)c1cc(-c2ncnc(Nc3cccc(Cl)c3)n2)ccn1 (mixture of isomers) [Example B41]
- good (at least 70%) protection [1]: at least 70%
